Laboratory results taken from US20260241021A1 (priority 2023, published 2026).

Experiment: general procedure: solution-phase peptide synthesis; HATU

Boc-GGFG-PAB (COOtBu)
conjugation yield (conjugation step): 98.9%

Boc-GGFG-PAB (COOtBu)-PNP
step yield (late stage modification step): 46.2%

Boc-GGVC-PAB (COOtBu)-Exatecan
step yield (coupling step): 65.9%
